PubChem BioAssay AID743454, Peter MacCallum Cancer Centre, 2014

Purpose: 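Genes whose loss kills vorinostat-resistant colon cancer cells under vorinostat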 (primary screen)
System: human HCT116-VR colon cancer cells, selected for vorinostat resistance
Knock-down reagent: siRNA pool against human genes, 40 nM siRNA pool
Timing: vorinostat for 24 h, read-out about 72 h after transfection
Treatment: vorinostat at 2.5 µM final
Measured: 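Cell viability by CellTiter-Fluor and caspase 3/7 activity by luminescence, each scaled to mock wells per plate, duplicates averaged, then robust z-scored over all plates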
Direction: viability robust z-score: higher = more viable cells than screen typical; caspase robust z-score: higher = more caspase 3/7 activity than screen typical
Rule for the call: 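Hits are knock-downs in viability class RV1/RV2 or caspase class CA1/CA2, excluding ones that killed cells in the no-drug cell-count arm; hits then retested with single siRNAs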
In all, the deposit lists about 18,000 reagents; this is a random part of them. Over the whole deposit, 450 (2.5%) got an active call. 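Single biological run; no consistent viability z cut-off exists, so the class columns, not z-scores, define the calls.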

What did the screen give for HES7?
viability hit class: no change; caspase hit class: no change; viability robust z-score: -0.62; caspase robust z-score: 4.22; outcome: inactive

Which result is listed for ANKRD53?
viability hit class: no change; caspase hit class: no change; viability robust z-score: -0.06; caspase robust z-score: -0.52; outcome: inactive

What is on record for CYP7B1?
viability hit class: no change; caspase hit class: no change; viability robust z-score: -0.1; caspase robust z-score: -0.57; outcome: inactive

What did the screen give for ADCY9?
viability hit class: no change; caspase hit class: no change; viability robust z-score: -0.29; caspase robust z-score: -0.28; outcome: inactive

What did the screen give for C16orf90?
viability hit class: no change; caspase hit class: no change; viability robust z-score: 0.83; caspase robust z-score: -0.44; outcome: inactive

With GPC3, how do the results read?
viability hit class: no change; caspase hit class: no change; viability robust z-score: -0.02; caspase robust z-score: 3.96; outcome: inactive

With ALKBH5, what was measured?
viability hit class: no change; caspase hit class: CA2 (caspase activation); viability robust z-score: -2.48; caspase robust z-score: 6.82; outcome: active

With GPR63, what was measured?
viability hit class: no change; caspase hit class: no change; viability robust z-score: -0.44; caspase robust z-score: 0.34; outcome: inactive

With TNP1, what was measured?
viability hit class: no change; caspase hit class: no change; viability robust z-score: -0.43; caspase robust z-score: 1.27; outcome: inactive

Which result is listed for OGT?
viability hit class: no change; caspase hit class: no change; viability robust z-score: 0.67; caspase robust z-score: 0.46; outcome: inactive

What is on record for BRAF?
viability hit class: no change; caspase hit class: no change; viability robust z-score: -1.82; caspase robust z-score: 2.4; outcome: inactive

For FOXK2, what does the deposit list?
viability hit class: no change; caspase hit class: no change; viability robust z-score: 0.82; caspase robust z-score: 2.03; outcome: inactive

What did the screen give for KCNK9?
viability hit class: no change; caspase hit class: no change; viability robust z-score: -0.44; caspase robust z-score: 0.81; outcome: inactive

Which result is listed for NANOS2?
viability hit class: no change; caspase hit class: no change; viability robust z-score: 0.64; caspase robust z-score: -0.5; outcome: inactive

How did the screen score CCDC162P?
viability hit class: no change; caspase hit class: no change; viability robust z-score: 0.52; caspase robust z-score: -0.93; outcome: inactive

How did the screen score SNX14?
viability hit class: no change; caspase hit class: no change; viability robust z-score: 1.39; caspase robust z-score: -0.56; outcome: inactive

How did the screen score N4BP1?
viability hit class: no change; caspase hit class: no change; viability robust z-score: 1.88; caspase robust z-score: -0.04; outcome: inactive

Which result is listed for TRIM75?
viability hit class: no change; caspase hit class: no change; viability robust z-score: 1.42; caspase robust z-score: 0.18; outcome: inactive

With TPD52, how do the results read?
viability hit class: no change; caspase hit class: no change; viability robust z-score: -0.19; caspase robust z-score: 0.28; outcome: inactive

For MN1, what does the deposit list?
viability hit class: no change; caspase hit class: no change; viability robust z-score: -0.86; caspase robust z-score: -1.07; outcome: inactive

With NAGS, what was measured?
viability hit class: no change; caspase hit class: no change; viability robust z-score: 1.21; caspase robust z-score: 0.09; outcome: inactive

Copied from the listing for reference:
ANKRD53 → viability hit class: no change; caspase hit class: no change; viability robust z-score: -0.06; caspase robust z-score: -0.52; outcome: inactive
CYP7B1 → viability hit class: no change; caspase hit class: no change; viability robust z-score: -0.1; caspase robust z-score: -0.57; outcome: inactive
